Measurements taken from PMC9243424.
These are yes or no findings as the source states them, for the method shown. In cells and extracts the contact can be indirect. Some entries that bind do so weakly or less than the wild type.

Amino acid sequences for entries named in this document (tags omitted).
UniProt P51532: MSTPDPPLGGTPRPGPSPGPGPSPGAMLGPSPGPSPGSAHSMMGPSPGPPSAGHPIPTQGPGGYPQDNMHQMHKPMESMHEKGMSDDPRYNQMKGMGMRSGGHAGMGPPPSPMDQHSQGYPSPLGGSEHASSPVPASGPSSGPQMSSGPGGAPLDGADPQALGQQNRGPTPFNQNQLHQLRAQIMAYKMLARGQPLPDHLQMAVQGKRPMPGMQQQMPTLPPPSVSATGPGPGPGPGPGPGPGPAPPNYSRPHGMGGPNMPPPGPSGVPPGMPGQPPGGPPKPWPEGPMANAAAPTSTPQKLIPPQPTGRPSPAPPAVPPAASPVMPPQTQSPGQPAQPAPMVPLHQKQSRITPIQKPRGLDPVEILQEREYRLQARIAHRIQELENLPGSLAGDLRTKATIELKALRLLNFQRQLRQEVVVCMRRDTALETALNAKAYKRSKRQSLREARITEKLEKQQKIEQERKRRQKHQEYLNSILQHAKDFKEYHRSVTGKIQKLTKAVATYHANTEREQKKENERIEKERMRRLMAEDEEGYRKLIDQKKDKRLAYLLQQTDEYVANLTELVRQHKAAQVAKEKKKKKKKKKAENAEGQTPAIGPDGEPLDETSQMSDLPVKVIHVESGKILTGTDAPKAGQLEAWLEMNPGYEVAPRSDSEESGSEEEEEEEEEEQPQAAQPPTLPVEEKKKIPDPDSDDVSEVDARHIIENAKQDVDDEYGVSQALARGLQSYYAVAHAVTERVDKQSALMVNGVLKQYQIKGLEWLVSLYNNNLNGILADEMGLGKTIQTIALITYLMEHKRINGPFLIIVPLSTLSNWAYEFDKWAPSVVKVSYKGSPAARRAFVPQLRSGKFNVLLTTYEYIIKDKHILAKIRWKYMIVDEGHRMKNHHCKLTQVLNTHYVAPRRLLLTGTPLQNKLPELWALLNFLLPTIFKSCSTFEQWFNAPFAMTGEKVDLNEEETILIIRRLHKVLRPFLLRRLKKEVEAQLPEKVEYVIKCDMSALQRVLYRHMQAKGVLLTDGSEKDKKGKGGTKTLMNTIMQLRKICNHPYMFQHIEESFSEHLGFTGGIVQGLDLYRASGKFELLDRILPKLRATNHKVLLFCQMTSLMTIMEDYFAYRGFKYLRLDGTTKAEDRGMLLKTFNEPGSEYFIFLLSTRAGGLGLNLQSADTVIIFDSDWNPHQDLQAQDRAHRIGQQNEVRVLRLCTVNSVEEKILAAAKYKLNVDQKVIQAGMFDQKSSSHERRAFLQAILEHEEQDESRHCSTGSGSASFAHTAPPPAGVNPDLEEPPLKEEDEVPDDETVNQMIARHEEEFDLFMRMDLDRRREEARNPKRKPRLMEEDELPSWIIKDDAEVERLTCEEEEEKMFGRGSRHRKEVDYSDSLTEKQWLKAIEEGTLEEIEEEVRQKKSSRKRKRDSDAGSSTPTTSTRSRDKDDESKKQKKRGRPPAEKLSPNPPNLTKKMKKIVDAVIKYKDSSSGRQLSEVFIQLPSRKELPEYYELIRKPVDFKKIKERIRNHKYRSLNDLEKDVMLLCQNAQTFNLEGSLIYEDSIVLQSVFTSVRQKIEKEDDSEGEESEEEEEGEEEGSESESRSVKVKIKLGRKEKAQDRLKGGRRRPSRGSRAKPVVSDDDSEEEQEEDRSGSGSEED

Molecular target: T1, SMARCAL1 (human (endogenous in HeLa)) (UniProt Q9NZC9)
T1 sequence: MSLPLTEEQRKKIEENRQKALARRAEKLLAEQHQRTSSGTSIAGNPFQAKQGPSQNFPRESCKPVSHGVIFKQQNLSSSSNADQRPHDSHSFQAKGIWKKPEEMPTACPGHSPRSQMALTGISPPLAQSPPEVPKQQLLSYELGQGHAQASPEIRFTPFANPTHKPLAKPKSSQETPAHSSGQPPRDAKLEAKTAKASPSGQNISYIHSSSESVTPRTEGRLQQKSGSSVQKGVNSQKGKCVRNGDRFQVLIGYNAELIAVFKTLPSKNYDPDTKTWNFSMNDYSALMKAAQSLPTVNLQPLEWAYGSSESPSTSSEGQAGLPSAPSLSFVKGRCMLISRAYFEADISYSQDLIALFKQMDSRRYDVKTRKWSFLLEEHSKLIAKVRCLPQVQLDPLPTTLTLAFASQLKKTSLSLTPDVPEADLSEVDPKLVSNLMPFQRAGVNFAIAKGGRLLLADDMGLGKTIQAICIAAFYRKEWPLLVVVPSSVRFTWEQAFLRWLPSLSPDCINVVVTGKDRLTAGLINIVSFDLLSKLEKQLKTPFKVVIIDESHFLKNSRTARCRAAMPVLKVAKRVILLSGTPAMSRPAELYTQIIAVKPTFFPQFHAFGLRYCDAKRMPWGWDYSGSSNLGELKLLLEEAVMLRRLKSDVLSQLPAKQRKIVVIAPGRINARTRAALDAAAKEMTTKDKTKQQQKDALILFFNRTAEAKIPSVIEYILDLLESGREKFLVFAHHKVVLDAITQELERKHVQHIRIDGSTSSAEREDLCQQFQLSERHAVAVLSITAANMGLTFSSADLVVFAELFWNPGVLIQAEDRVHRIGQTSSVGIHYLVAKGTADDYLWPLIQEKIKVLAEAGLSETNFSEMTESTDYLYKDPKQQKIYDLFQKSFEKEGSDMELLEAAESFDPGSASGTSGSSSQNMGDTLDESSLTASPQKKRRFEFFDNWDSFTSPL
Assay: co-IP; HeLa extracts in RIPA buffer (250 mM NaCl, 50 mM Tris.Cl pH 8.0, 2 mM EDTA, 1% NP-40); anti-SMARCAL1 or anti-BRG1, protein G beads, 4°C, 16 h; cells untreated or treated with 2 μM doxorubicin for 10 min; IgG as negative control; western blot for both proteins

binding: binds
Substance: BRG1 (from UniProt P51532 1-1647)
